From US20090099177A1, “PYRIDYL COMPOUNDS” (priority 2006, published 2009)
Where a name gives a salt, the structure may show the parent alone. Some of these results come from one statement about several compounds together.

These molecules were tested against T1, human prostanoid EP1 receptor (Homo sapiens, UniProt P34995) (assay: Binding assay for the human prostanoid EP1 receptor (competition with [3H]-PGE2)). Details: [3H]-PGE2 competition, human EP1, CHO-K1 membranes; averages of a number of experiments.
T1 construct: expressed in transfected cells; host or cells: CHO-K1 (membrane fraction)
T1 sequence (P34995 1-402): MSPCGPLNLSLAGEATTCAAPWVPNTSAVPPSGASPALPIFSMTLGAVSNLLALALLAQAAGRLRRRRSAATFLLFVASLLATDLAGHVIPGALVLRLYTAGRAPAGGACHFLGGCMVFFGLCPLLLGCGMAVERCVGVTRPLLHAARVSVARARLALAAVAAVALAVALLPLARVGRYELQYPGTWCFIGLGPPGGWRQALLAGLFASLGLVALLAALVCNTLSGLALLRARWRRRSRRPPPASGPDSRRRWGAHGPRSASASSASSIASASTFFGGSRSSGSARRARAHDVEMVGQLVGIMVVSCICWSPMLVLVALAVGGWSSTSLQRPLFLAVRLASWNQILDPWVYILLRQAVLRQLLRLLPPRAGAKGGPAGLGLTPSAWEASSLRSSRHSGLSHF
Description: Competition assay using [^3H]-PGE2.
Compound potencies are determined using a radioligand binding assay. In this assay compound potencies are determined from their ability to compete with tritiated prostaglandin E2 ([^3H]-PGE2) for binding to the human EP1 receptor.
This assay utilises Chinese hamster ovary-K1 (CHO-K1) cells into which a stable vector containing the EP1 cDNA has previously been transfected. Cells are cultured in suitable flasks containing culture medium such as DMEM:F-12 supplemented with 10% v/v foetal calf serum, 2 mM L-glutamine, 0.25 mg/ml geneticin, 10 μg/ml puromycin and 10 μM indomethacin.
Cells are detached from the culture flasks by incubation in calcium and magnesium free phosphate buffered saline containing 1 mM disodium ethylenediaminetetraacetic acid (Na2EDTA) and 10 μM indomethacin for 5 min. The cells are isolated by centrifugation at 250×g for 5mins and suspended in an ice cold buffer such as 50 mM Tris, 1 mM Na2EDTA, 140 mM NaCl, 10 μM indomethacin (pH 7.4). The cells are homogenised using a Polytron tissue disrupter (2×10 s burst at full setting), centrifuged at 48,000×g for 20mins and the pellet containing the membrane fraction is washed (optional) three times by suspension and centrifugation at 48,000×g for 20mins. The final membrane pellet is suspended in an assay buffer such as 10 mM 2-[N-morpholino]ethanesulphonic acid, 1 mM Na2EDTA, 10 mM MgCl2 (pH 6). Aliquots are frozen at −80° C. until required.
For the binding assay the cell membranes, competing compounds and [^3H]-PGE2 (3 nM final assay concentration) are incubated in a final volume of 100 μl for 30 min at 30° C. All reagents are prepared in assay buffer. Reactions are terminated by rapid vacuum filtration over GF/B filters using a Brandell cell harvester. The filters are washed with ice cold assay buffer, dried and the radioactivity retained on the filters is measured by liquid scintillation counting in Packard TopCount scintillation counter.
The data are analysed using non linear curve fitting techniques to determine the concentration of compound producing 50% inhibition of specific binding (IC50).

pIC50 value, ≥ 6:
CNCc1ccc2nc(-c3cccc(Cc4cc(Cl)ccc4OCC(C)C)n3)[nH]c2c1 [Example 52, ({2-[6-({5-Chloro-2-[(2-methylpropyl)oxy]phenyl}methyl)-2-pyridinyl]-1H-benzimidazol-5-yl}methyl)methylaminehydrochloride]
CC(C)COc1ccc(Cl)cc1Cc1cccc(-c2nc3ccccc3[nH]2)n1 [Example 44, 2-[6-({5-Chloro-2-[(2-methylpropyl)oxy]phenyl}methyl)-2-pyridinyl]-1H-benzimidazole]
Clc1ccc(OCc2ccccc2)c(Cc2cccc(-c3nc4cc5cn[nH]c5cc4[nH]3)n2)c1 [Example 39, 6-[6-({5-Chloro-2-[(phenylmethyl)oxy]phenyl}methyl)-2-pyridinyl]-1,5-dihydroimidazo[4,5-f]indazolehydrochloride]
O=C(Nc1cccc(Cc2cc(Cl)ccc2OCc2ccccc2)n1)c1ccccn1 [Example 15, N-[6-({5-Chloro-2-[(phenylmethyl)oxy]phenyl}methyl)-2-pyridinyl]-2-pyridinecarboxamide]
Fc1cc2nc(-c3cccc(Cc4cc(Cl)ccc4OCc4ccccc4)n3)[nH]c2cc1F [Example 37, 2-[6-({5-Chloro-2-[(phenylmethyl)oxy]phenyl}methyl)-2-pyridinyl]-5,6-difluoro-1H-benzimidazolehydrochloride]
O=C(Nc1cccc(Cc2cc(Cl)ccc2OCc2ccccc2)n1)C1CCCCC1 [Example 4, N-[6-({5-Chloro-2-[(phenylmethyl)oxy]phenyl}methyl)-2-pyridinyl]cyclohexanecarboxamide]
O=C(NC1CCCCC1)c1cccc(Cc2cc(Cl)ccc2OCc2ccccc2)n1 [Example 12, 6-({5-Chloro-2-[(phenylmethyl)oxy]phenyl}methyl)-N-cyclohexyl-2-pyridinecarboxamide]
CN(CCC#N)Cc1ccc(NC(=O)c2cccc(Cc3cc(Cl)ccc3OCc3ccc(Cl)cc3F)n2)cc1 [Example 57, 6-[(5-Chloro-2-{[(4-chloro-2-fluorophenyl)methyl]oxy}phenyl)methyl]-N-(4-{[(2-cyanoethyl)(methyl)amino]methyl}phenyl)-2-pyridinecarboxamide]
Fc1ccc2nc(-c3cccc(Cc4cc(Cl)ccc4OCc4ccccc4)n3)[nH]c2c1F [Example 40, 2-[6-({5-Chloro-2-[(phenylmethyl)oxy]phenyl}methyl)-2-pyridinyl]-4,5-difluoro-1H-benzimidazolehydrochloride]
CC(C)COc1ccc(Cl)cc1Cc1cccc(-c2nc3c(ccc4nn[nH]c43)[nH]2)n1 [Example 25, 7-[6-({5-Chloro-2-[(2-methylpropyl)oxy]phenyl}methyl)-2-pyridinyl]-1,6-dihydroimidazo[4,5-e][1,2,3]benzotriazolehydrochloride]
O=C(Nc1ccccn1)c1cccc(Cc2cc(Cl)ccc2OCc2ccccc2)n1 [Example 6, 6-({5-Chloro-2-[(phenylmethyl)oxy]phenyl}methyl)-N-2-pyridinyl-2-pyridinecarboxamide]
O=C(NCc1ccccn1)c1cccc(Cc2cc(Cl)ccc2OCc2ccccc2)n1 [Example 7, 6-({5-Chloro-2-[(phenylmethyl)oxy]phenyl}methyl)-N-(2-pyridinylmethyl)-2-pyridinecarboxamide]
CN(C)Cc1ccc2nc(-c3cccc(Cc4cc(Cl)ccc4OCc4ccc(Cl)cc4F)n3)[nH]c2c1 [Example 58, [(2-{6-[(5-Chloro-2-{[(4-chloro-2-fluorophenyl)methyl]oxy}phenyl)methyl]-2-pyridinyl}-1H-benzimidazol-5-yl)methyl]dimethylamine Hydrochloride]
CC(C)COc1ccc(Cl)cc1Cc1cccc(-c2ncc[nH]2)n1 [Example 42, 2-({5-Chloro-2-[(2-methylpropyl)oxy]phenyl}methyl)-6-(1H-imidazol-2-yl)pyridine]
CC(C)COc1ccc(Cl)cc1Cc1cccc(-c2nc3cc4cnn(C)c4cc3[nH]2)n1 [Example 23, 6-[6-({5-Chloro-2-[(2-methylpropyl)oxy]phenyl}methyl)-2-pyridinyl]-1-methyl-1,5-dihydroimidazo[4,5-f]indazolehydrochloride]
CC(C)COc1ccc(Cl)cc1Cc1cccc(-c2nc3ccc(CN4CCCC4)cc3[nH]2)n1 [Example 49, 2-[6-({5-Chloro-2-[(2-methylpropyl)oxy]phenyl}methyl)-2-pyridinyl]-5-(1-pyrrolidinylmethyl)-1H-benzimidazole hydrochloride]
Clc1ccc(OCc2ccccc2)c(Cc2cccc(-c3nc4ccc(N5CCOCC5)cc4[nH]3)n2)c1 [Example 28, 2-[6-({5-Chloro-2-[(phenylmethyl)oxy]phenyl}methyl)-2-pyridinyl]-5-(4-morpholinyl)-1H-benzimidazolehydrochloride]
Cc1ccc2[nH]c(-c3cccc(Cc4cc(Cl)ccc4OCc4ccccc4)n3)nc2c1 [Example 29, 2-[6-({5-Chloro-2-[(phenylmethyl)oxy]phenyl}methyl)-2-pyridinyl]-5-methyl-1H-benzimidazole Hydrochloride]
O=C(NCc1ccccc1)c1cccc(Cc2cc(Cl)ccc2OCc2ccccc2)n1 [Example 11, 6-({5-Chloro-2-[(phenylmethyl)oxy]phenyl}methyl)-N-(phenylmethyl)-2-pyridinecarboxamide]
CC(C)(C)CC(=O)Nc1cccc(Cc2cc(Cl)ccc2OCc2ccccc2)n1 [Example 5, N-[6-({5-Chloro-2-[(phenylmethyl)oxy]phenyl}methyl)-2-pyridinyl]-3,3-dimethylbutanamide]
O=C(Nc1ccc(CN2CCOCC2)cc1)c1cccc(Cc2cc(Cl)ccc2OCc2ccc(Cl)cc2F)n1 [Example 54, 6-[(5-Chloro-2-{[(4-chloro-2-fluorophenyl)methyl]oxy}phenyl)methyl]-N-[4-(4-morpholinylmethyl)phenyl]-2-pyridinecarboxamide]
CN(C)Cc1ccc(NC(=O)c2cccc(Cc3cc(Cl)ccc3OCc3ccc(Cl)cc3F)n2)cc1 [Example 53, 6-[(5-Chloro-2-{[(4-chloro-2-fluorophenyl)methy]oxy}phenyl)methyl]-N-{4-[(dimethylamino)methyl]phenyl}-2-pyridinecarboxamide]
CC(C)COc1ccc(Cl)cc1Cc1cccc(NC(=O)c2ccc(CN3CCOCC3)cc2)n1 [Example 45, N-[6-({5-Chloro-2-[(2-methylpropyl)oxy]phenyl}methyl)-2-pyridinyl]-4-(4-morpholinylmethyl)benzamide Hydrochloride]
CC(C)COc1ccc(Cl)cc1Cc1cccc(-c2nc3cnc4ccccc4c3[nH]2)n1 [Example 24, 2-[6-({5-Chloro-2-[(2-methylpropyl)oxy]phenyl}methyl)-2-pyridinyl]-1H-imidazo[4,5-c]quinoline hydrochloride]
O=C(Nc1cccc(Cc2cc(Cl)ccc2OCc2ccccc2)n1)c1cccnc1 [Example 16, N-[6-({5-Chloro-2-[(phenylmethyl)oxy]phenyl}methyl)-2-pyridinyl]-3-pyridinecarboxamide]
Fc1cc(Cl)ccc1COc1ccc(Cl)cc1Cc1cccc(-c2nc3ccccc3[nH]2)n1 [Example 19, 2-{6-[(5-Chloro-2-[([(4-chloro-2-fluorophenyl)methyl]oxy}phenyl)methyl]-2-pyridinyl]-1H-benzimidazole Hydrochloride]
CC(C)COc1ccc(Cl)cc1Cc1cccc(-c2nc3ncccc3[nH]2)n1 [Example 21, 2-[6-({5-Chloro-2-[(2-methylpropyl)oxy]phenyl}methyl)-2-pyridinyl]-1H-imidazo[4,5-b]pyridine hydrochloride]
CC(C)COc1ccc(Cl)cc1Cc1cccc(-c2nc3ccc(CN(C)C)cc3[nH]2)n1 [Example 51, ({2-[6-({5-Chloro-2-[(2-methylpropyl)oxy]phenyl}methyl)-2-pyridinyl]-1H-benzimidazol-5-yl}methyl)dimethylaminehydrochloride]
